Measured data: PubChem BioAssay AID504764 (Drosophila RNAi Screening Center, 2011)

- Screen: 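Knock-downs that raise or lower a Notch target reporter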 (primary screen)
- Cell system: Drosophila Kc167 cells
- Knock-down reagent: long dsRNA against Drosophila genes
- Timing: about 5 days (4 days dsRNA, then 24 h after transfection)
- Treatment: transfection of constitutively active membrane-tethered Notch lacking the extracellular domain, read 24 h later
- Read-out: 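Firefly luciferase from an E(spl)m3 reporter with active Notch, plus control-promoter and uninduced reporter wells for normalisation; unnormalised counts, duplicate wells a and b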
- Reading the numbers: induced reporter light, run 1, well a and induced reporter light, run 1, well b: higher = more light from the Notch target reporter with active Notch; control promoter light, run 1, well a and control promoter light, run 1, well b: higher = more light from the viral control promoter (cell number, transfection, viability); uninduced reporter light, run 1, well a: higher = more light from the Notch target reporter without active Notch
- Rule for the call: 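Wells with low control signal or poorly matching duplicates excluded; duplicates averaged; per source plate, z beyond ±2 for induced/control log2 ratio or beyond ±1.8 for induced/uninduced marks a hit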
- Meaning of the calls: active = modifier hit (raised or lowered Notch signal); inactive = not a hit
In all, the deposit lists about 22,000 reagents; this is an unselected part of those with a known target gene and a result. Over the whole deposit, 403 (1.9%) were called active. 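Unnormalised raw counts per well; ratio z-scores behind the hit calls and whether each hit raises or lowers signal are not deposited.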 Reagent sequences are not shown. Not given: the amount of reagent.

Obp73a (Odorant-binding protein 73a)
- induced reporter light, run 1, well a: 1.18e5
- induced reporter light, run 1, well b: 1.02e5
- control promoter light, run 1, well a: 96625
- control promoter light, run 1, well b: 1.03e5
- uninduced reporter light, run 1, well a: 4392
- Outcome: inactive

TBC1D23 (TBC1 domain family member 23)
- induced reporter light, run 1, well a: 88380
- induced reporter light, run 1, well b: 96225
- control promoter light, run 1, well a: 78735
- control promoter light, run 1, well b: 47210
- uninduced reporter light, run 1, well a: 7820
- Outcome: inactive

CG6125
- induced reporter light, run 1, well a: 2.78e5
- induced reporter light, run 1, well b: 2.89e5
- control promoter light, run 1, well a: 2.63e5
- control promoter light, run 1, well b: 3.16e5
- uninduced reporter light, run 1, well a: 21095
- Outcome: inactive

CG12171
- induced reporter light, run 1, well a: 1.08e5
- induced reporter light, run 1, well b: 90420
- control promoter light, run 1, well a: 76400
- control promoter light, run 1, well b: 65730
- uninduced reporter light, run 1, well a: 7610
- Outcome: inactive

CG31897
- induced reporter light, run 1, well a: 1.30e5
- induced reporter light, run 1, well b: 2.00e5
- control promoter light, run 1, well a: 2.01e5
- control promoter light, run 1, well b: 1.70e5
- uninduced reporter light, run 1, well a: 9950
- Outcome: inactive

CG10793
- induced reporter light, run 1, well a: 1.22e5
- induced reporter light, run 1, well b: 1.16e5
- control promoter light, run 1, well a: 1.94e5
- control promoter light, run 1, well b: 1.84e5
- uninduced reporter light, run 1, well a: 10225
- Outcome: inactive

Tbca (Tubulin binding cofactor A)
- induced reporter light, run 1, well a: 1.57e5
- induced reporter light, run 1, well b: 1.34e5
- control promoter light, run 1, well a: 2.02e5
- control promoter light, run 1, well b: 2.50e5
- uninduced reporter light, run 1, well a: 11725
- Outcome: inactive

Arpc4 (Actin-related protein 2/3 complex, subunit 4)
- induced reporter light, run 1, well a: 88900
- induced reporter light, run 1, well b: 79060
- control promoter light, run 1, well a: 89190
- control promoter light, run 1, well b: 63595
- uninduced reporter light, run 1, well a: 4235
- Outcome: inactive

SCCRO (Squamous cell carcinoma-related oncogene)
- induced reporter light, run 1, well a: 2.65e5
- induced reporter light, run 1, well b: 2.26e5
- control promoter light, run 1, well a: 2.76e5
- control promoter light, run 1, well b: 2.78e5
- uninduced reporter light, run 1, well a: 6580
- Outcome: active

CG3505
- induced reporter light, run 1, well a: 1.11e5
- induced reporter light, run 1, well b: 95920
- control promoter light, run 1, well a: 83165
- control promoter light, run 1, well b: 58290
- uninduced reporter light, run 1, well a: 9365
- Outcome: inactive

OtopLb (Otopetrin-like b)
- induced reporter light, run 1, well a: 1.75e5
- induced reporter light, run 1, well b: 1.57e5
- control promoter light, run 1, well a: 1.10e5
- control promoter light, run 1, well b: 1.33e5
- uninduced reporter light, run 1, well a: 15675
- Outcome: active

Only “control promoter light, run 1, well a” (3 entries from above):
Tbca (Tubulin binding cofactor A) = 2.02e5
Arpc4 (Actin-related protein 2/3 complex, subunit 4) = 89190
SCCRO (Squamous cell carcinoma-related oncogene) = 2.76e5

Continued:
COX3 (retired record)
- induced reporter light, run 1, well a: 91650
- induced reporter light, run 1, well b: 1.11e5
- control promoter light, run 1, well a: 1.17e5
- control promoter light, run 1, well b: 1.35e5
- uninduced reporter light, run 1, well a: 11970
- Outcome: inactive

beag
- induced reporter light, run 1, well a: 1.24e5
- induced reporter light, run 1, well b: 1.15e5
- control promoter light, run 1, well a: 63120
- control promoter light, run 1, well b: 73145
- uninduced reporter light, run 1, well a: 8875
- Outcome: inactive

Nmnat (Nicotinamide mononucleotide adenylyltransferase)
- induced reporter light, run 1, well a: 1.44e5
- induced reporter light, run 1, well b: 1.19e5
- control promoter light, run 1, well a: 2.25e5
- control promoter light, run 1, well b: 2.05e5
- uninduced reporter light, run 1, well a: 13855
- Outcome: inactive

CG34286
- induced reporter light, run 1, well a: 96930
- induced reporter light, run 1, well b: 99835
- control promoter light, run 1, well a: 1.33e5
- control promoter light, run 1, well b: 98735
- uninduced reporter light, run 1, well a: 10650
- Outcome: inactive

GstE3 (Glutathione S transferase E3)
- induced reporter light, run 1, well a: 36200
- induced reporter light, run 1, well b: 31360
- control promoter light, run 1, well a: 47940
- control promoter light, run 1, well b: 30760
- uninduced reporter light, run 1, well a: 2480
- Outcome: inactive

alpha4GT2 (alpha1,4-galactosyltransferase 2)
- induced reporter light, run 1, well a: 1.18e5
- induced reporter light, run 1, well b: 1.55e5
- control promoter light, run 1, well a: 1.63e5
- control promoter light, run 1, well b: 1.52e5
- uninduced reporter light, run 1, well a: 11535
- Outcome: inactive

CG14879
- induced reporter light, run 1, well a: 1.97e5
- induced reporter light, run 1, well b: 1.82e5
- control promoter light, run 1, well a: 1.63e5
- control promoter light, run 1, well b: 1.40e5
- uninduced reporter light, run 1, well a: 13735
- Outcome: inactive
